According to article PMC6995019:
These are yes or no findings as the source states them, for the method shown. A result given as binding can be weak or reduced; the word gives no strength.

Biological target: T1, CCCTC-binding factor (CTCF) (UniProt P49711)
T1 sequence: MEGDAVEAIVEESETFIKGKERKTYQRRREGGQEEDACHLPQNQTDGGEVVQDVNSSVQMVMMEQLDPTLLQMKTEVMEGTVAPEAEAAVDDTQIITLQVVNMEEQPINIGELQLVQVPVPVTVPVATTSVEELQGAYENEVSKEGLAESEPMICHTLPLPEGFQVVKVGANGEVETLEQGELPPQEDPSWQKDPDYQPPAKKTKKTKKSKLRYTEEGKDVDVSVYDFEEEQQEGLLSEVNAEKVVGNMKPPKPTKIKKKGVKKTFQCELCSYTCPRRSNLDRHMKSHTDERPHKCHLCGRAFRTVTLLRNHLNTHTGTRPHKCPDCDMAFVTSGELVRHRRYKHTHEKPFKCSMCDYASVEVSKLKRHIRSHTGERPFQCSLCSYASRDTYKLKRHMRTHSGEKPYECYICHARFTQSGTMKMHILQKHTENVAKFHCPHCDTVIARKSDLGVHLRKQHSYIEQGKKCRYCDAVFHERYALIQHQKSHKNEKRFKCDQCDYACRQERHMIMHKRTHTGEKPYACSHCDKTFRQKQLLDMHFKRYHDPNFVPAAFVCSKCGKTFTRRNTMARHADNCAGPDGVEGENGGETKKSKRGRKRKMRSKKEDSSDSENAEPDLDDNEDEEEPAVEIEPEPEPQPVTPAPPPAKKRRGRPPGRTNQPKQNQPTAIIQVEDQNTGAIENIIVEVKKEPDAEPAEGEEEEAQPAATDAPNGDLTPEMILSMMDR
Test: native gel or EMSA; EMSA with size-fractionated nuclear extracts

BORIS (CTCFL)
binding: binds
